Laboratory results from patent US8133885B2, “Non steroidal glucocorticoid receptor modulators” (Merck Sharp & Dohme Corp., priority 2005, dated 2012).
Some entries share one result that the patent states for a list of compounds.

Biological target: T1, human recombinant GR (Homo sapiens, UniProt P04150)
T1 construct: expressed in transfected cells; host or cells: U2OS (human osteoblastic cell line)
T1 sequence (P04150 1-777): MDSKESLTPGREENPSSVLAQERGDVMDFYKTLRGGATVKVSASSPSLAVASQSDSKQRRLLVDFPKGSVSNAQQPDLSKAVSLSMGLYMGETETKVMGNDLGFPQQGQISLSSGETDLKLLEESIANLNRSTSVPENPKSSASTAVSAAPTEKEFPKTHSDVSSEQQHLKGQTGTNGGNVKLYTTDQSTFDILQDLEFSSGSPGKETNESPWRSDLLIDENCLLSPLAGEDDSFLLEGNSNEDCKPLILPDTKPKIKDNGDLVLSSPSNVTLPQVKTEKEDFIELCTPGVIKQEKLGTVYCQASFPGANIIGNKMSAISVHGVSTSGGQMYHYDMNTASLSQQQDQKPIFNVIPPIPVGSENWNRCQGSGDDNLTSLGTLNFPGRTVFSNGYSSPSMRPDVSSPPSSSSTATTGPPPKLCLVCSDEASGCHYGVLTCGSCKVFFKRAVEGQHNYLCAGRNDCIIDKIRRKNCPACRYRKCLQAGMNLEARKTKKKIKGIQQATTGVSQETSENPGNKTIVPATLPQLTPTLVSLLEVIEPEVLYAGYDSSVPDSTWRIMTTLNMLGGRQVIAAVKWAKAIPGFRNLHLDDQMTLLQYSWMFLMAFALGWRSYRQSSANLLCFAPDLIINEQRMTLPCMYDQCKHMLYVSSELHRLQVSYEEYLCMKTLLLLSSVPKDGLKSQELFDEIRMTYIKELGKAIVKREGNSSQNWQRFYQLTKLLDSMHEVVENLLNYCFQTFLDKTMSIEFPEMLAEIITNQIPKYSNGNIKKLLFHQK
Assay: Inhibition of TNFα/IFNγ-stimulated MCP-1 expression in U2OS cells stably transfected with human recombinant GR DNA
Assay type: cell-based
Settings: U2OS cells stimulated with TNFα and IFNγ

“cis-2,2,2-trifluoro-N-[1,2,3,4,10,14b-hexahydro-10-methyl-8-(pyridin-4-yl)dibenzo[b,f]pyrido[1,2-d][1,4]diazepin-2-yl]acetamide [Example 20]” was tested, and the EC50 was 0.2 to 2 nM.
